In the supplement of paper PMC8728848:
This is one part of the list.

Legend:
Assay in all cases: glycan array binding signal (z-score within array); higher = stronger binding
Details in all cases: glycan notation: IUPAC condensed, linker removed
[1] = target: Gal(b1-3)GlcNAc(b1-3)Gal(b1-4)GlcNAc(b1-2)[Gal(b1-3)GlcNAc(b1-3)Gal(b1-4)GlcNAc(b1-6)]Man(a1-6)[Gal(b1-3)GlcNAc(b1-3)Gal(b1-4)GlcNAc(b1-2)Man(a1-3)]Man(b1-4)GlcNAc(b1-4)[Fuc(a1-6)]GlcNAc
Summary of the method: (§1)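 Glycan array data were curated from 3228 arrays in the Consortium for Functional Glycomics database and kept only where the protein sequence was available. Glycan names were converted to IUPAC-condensed notation, and columns mapping to the same glycan were averaged. The binding signal is a within-array Z-score, averaged across arrays of the same protein sequence at different concentrations or buffers and across linkers. Negative Z-scores can be read as non-binding.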

[2] = target: Gal(b1-3)GlcNAc(b1-3)Gal(b1-4)GlcNAc(b1-3)Gal(b1-4)GlcNAc(b1-2)[Gal(b1-3)GlcNAc(b1-3)Gal(b1-4)GlcNAc(b1-3)Gal(b1-4)GlcNAc(b1-6)]Man(a1-6)[Gal(b1-3)GlcNAc(b1-3)Gal(b1-4)GlcNAc(b1-3)Gal(b1-4)GlcNAc(b1-2)Man(a1-3)]Man(b1-4)GlcNAc(b1-4)[Fuc(a1-6)]GlcNAc
Summary of the method: as §1

[3] = target: Gal(b1-3)GlcNAc(b1-3)Gal(b1-4)GlcNAc(b1-6)[Gal(b1-3)GlcNAc(b1-3)]Gal(b1-4)Glc
Summary of the method: as §1

[4] = target: Gal(b1-3)GlcNAc(b1-3)Gal(b1-4)[Fuc(a1-3)]GlcNAc
Summary of the method: as §1

[5] = target: Gal(b1-3)GlcNAc(b1-3)Gal(b1-4)[Fuc(a1-3)]GlcNAc(b1-6)[Gal(b1-3)GlcNAc(b1-3)]Gal(b1-4)Glc
Summary of the method: as §1

[6] = target: Gal(b1-3)GlcNAc(b1-3)GalNAc
Summary of the method: as §1

[7] = target: Gal(b1-3)GlcNAc(b1-6)Gal(b1-4)GlcNAc
Summary of the method: as §1

[8] = target: Gal(b1-3)GlcNAc(b1-6)GalNAc
Summary of the method: as §1

[9] = target: Gal(b1-3)GlcNAc(b1-6)[Gal(b1-3)]GalNAc
Summary of the method: as §1

Gal(b1-3)GlcNAc6S = target: Gal(b1-3)GlcNAc6S
Summary of the method: as §1

[10] = target: Gal(b1-3)[Fuc(a1-4)]GlcNAc
Summary of the method: as §1

[11] = target: Gal(b1-3)[Fuc(a1-4)]GlcNAc(b1-2)Man
Summary of the method: as §1

[12] = target: Gal(b1-3)[Fuc(a1-4)]GlcNAc(b1-2)Man(a1-3)[Gal(b1-3)[Fuc(a1-4)]GlcNAc(b1-2)Man(a1-6)]Man(b1-4)GlcNAc(b1-4)[Fuc(a1-6)]GlcNAc
Summary of the method: as §1

[13] = target: Gal(b1-3)[Fuc(a1-4)]GlcNAc(b1-3)Gal(b1-3)[Fuc(a1-4)]GlcNAc
Summary of the method: as §1

[14] = target: Gal(b1-3)[Fuc(a1-4)]GlcNAc(b1-3)Gal(b1-4)[Fuc(a1-3)]GlcNAc
Summary of the method: as §1

[15] = target: Gal(b1-3)[Fuc(a1-4)]GlcNAc(b1-6)GalNAc
Summary of the method: as §1

[16] = target: Gal(b1-3)[GlcNAc(b1-6)]GalNAc
Summary of the method: as §1

[17] = target: Gal(b1-3)[Neu5Ac(a2-6)]GalNAc
Summary of the method: as §1

[18] = target: Gal(b1-3)[Neu5Ac(a2-6)]GlcNAc(b1-4)Gal(b1-4)Glc
Summary of the method: as §1

[19] = target: Gal(b1-3)[Neu5Ac(b2-6)]GalNAc
Summary of the method: as §1

Gal(b1-4)Gal = target: Gal(b1-4)Gal
Summary of the method: as §1

[20] = target: Gal(b1-4)GalNAc(a1-3)[Fuc(a1-2)]Gal(b1-4)GlcNAc
Summary of the method: as §1

[21] = target: Gal(b1-4)GalNAc(b1-3)[Fuc(a1-2)]Gal(b1-4)GlcNAc
Summary of the method: as §1

B1: EULS2 M3 (Oryza sativa) (protein)
chain: MVYCRANPNYAMTARNGAVVLAPANPKDEYQHWIKDMRWSTSIKDEEGYPAFALVNKATGQAIKHSLGQSHPVRLVPYNPEVMDESVLWTESRDVGNGFRCIRMVNNIYLNFDAFHGDKYHGGVRDGTDIVLWKLCEGDSLRWKIQPYYILEQKLISEEDLNSAVDHHHHHH
glycan array binding signal (z-score) [1]: 1.28 | glycan array binding signal (z-score) [2]: 1.66 | glycan array binding signal (z-score) [3]: -0.565 | glycan array binding signal (z-score) [4]: -0.065 | glycan array binding signal (z-score) [5]: -0.476 | glycan array binding signal (z-score) [6]: 0.298 | glycan array binding signal (z-score) [7]: -0.328 | glycan array binding signal (z-score) [8]: -0.373 | glycan array binding signal (z-score) [9]: -0.411 | glycan array binding signal (z-score) (Gal(b1-3)GlcNAc6S): 0.193 | glycan array binding signal (z-score) [10]: 0.71 | glycan array binding signal (z-score) [11]: 1.17 | glycan array binding signal (z-score) [12]: -0.151 | glycan array binding signal (z-score) [13]: 2.13 | glycan array binding signal (z-score) [14]: -0.726 | glycan array binding signal (z-score) [15]: -0.902 | glycan array binding signal (z-score) [16]: -0.139 | glycan array binding signal (z-score) [17]: -0.038 | glycan array binding signal (z-score) [18]: -0.281 | glycan array binding signal (z-score) [19]: -0.138 | glycan array binding signal (z-score) (Gal(b1-4)Gal): 0.123 | glycan array binding signal (z-score) [20]: -0.34 | glycan array binding signal (z-score) [21]: -0.158
